The text below walks through data of publication PMC9481931.

By UniProt entry, the sequences of proteins in these tests, tags left out.
UniProt A1ZAW0: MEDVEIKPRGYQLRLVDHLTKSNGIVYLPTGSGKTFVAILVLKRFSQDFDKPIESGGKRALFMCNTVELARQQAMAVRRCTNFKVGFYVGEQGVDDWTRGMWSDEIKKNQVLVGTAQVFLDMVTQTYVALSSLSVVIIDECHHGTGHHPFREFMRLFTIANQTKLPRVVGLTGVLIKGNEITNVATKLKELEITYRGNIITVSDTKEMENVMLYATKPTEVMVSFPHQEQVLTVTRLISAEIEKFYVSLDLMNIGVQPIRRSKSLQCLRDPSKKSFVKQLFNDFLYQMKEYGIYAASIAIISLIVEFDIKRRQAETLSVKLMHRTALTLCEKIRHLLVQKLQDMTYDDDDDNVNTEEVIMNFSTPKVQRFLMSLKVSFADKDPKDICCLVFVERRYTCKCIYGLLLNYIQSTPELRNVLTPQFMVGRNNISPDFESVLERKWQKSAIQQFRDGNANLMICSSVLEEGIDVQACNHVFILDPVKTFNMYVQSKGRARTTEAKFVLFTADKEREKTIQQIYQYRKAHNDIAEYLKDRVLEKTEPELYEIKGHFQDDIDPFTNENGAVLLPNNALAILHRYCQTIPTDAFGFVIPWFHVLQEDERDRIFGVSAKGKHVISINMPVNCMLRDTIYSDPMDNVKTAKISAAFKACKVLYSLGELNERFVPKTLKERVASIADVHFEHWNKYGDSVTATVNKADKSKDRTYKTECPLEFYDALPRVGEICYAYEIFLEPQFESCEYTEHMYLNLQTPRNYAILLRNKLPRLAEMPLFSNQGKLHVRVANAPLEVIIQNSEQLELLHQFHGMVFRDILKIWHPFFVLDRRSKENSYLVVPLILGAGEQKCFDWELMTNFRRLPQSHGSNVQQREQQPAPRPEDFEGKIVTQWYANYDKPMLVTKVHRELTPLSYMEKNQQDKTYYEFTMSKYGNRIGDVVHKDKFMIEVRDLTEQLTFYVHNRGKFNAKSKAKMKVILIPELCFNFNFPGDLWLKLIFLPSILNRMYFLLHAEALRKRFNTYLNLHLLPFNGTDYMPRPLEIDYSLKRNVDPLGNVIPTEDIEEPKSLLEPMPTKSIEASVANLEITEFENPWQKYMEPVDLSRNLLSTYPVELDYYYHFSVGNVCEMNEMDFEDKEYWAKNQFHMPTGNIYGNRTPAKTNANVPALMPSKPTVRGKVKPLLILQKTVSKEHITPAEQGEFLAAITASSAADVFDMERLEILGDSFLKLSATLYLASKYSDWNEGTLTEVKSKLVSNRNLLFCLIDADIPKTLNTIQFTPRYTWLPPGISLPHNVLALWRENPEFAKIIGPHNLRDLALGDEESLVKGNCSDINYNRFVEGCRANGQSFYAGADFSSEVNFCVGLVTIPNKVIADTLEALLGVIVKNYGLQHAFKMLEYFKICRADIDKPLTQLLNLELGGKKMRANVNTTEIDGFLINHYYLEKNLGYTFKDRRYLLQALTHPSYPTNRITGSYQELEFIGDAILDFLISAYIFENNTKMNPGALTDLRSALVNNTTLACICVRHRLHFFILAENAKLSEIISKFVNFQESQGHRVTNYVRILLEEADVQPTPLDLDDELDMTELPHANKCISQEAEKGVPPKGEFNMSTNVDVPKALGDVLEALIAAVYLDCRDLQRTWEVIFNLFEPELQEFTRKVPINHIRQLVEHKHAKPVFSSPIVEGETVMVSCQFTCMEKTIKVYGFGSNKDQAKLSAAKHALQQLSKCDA

Test [1] has as its target T1, Ataxin-2 (Drosophila melanogaster (endogenous in embryo extracts)) (UniProt Q8SWR8).
T1 sequence: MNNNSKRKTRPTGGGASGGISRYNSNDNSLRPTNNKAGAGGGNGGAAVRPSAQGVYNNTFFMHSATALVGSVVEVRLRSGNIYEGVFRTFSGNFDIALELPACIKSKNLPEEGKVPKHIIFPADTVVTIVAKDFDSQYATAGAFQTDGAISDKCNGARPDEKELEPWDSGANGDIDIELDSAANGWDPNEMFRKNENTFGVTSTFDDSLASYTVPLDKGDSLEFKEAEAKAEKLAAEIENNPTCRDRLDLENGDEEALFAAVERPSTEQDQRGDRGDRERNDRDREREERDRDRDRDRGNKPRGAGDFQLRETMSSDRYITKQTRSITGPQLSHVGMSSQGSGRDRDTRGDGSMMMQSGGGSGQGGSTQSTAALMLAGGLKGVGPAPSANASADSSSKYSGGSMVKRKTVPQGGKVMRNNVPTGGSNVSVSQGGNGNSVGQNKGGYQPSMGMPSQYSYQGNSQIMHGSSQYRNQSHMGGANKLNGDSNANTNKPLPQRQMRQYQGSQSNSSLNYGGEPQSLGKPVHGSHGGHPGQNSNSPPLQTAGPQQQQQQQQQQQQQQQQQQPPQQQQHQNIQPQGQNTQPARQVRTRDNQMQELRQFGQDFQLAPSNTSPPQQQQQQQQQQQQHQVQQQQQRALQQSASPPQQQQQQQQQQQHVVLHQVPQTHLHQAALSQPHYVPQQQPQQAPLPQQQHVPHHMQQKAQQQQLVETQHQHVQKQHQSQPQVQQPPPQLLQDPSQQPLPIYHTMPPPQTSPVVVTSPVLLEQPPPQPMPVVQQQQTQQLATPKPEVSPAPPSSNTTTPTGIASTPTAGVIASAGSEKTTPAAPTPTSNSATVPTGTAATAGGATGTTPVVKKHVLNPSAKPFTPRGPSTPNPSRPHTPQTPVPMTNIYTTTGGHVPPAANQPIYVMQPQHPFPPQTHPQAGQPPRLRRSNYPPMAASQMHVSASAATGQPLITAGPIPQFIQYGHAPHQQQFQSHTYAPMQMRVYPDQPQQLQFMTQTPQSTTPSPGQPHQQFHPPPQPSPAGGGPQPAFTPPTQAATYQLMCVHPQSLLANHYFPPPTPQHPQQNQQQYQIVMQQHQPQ
The test can be described thus: co-IP; small-scale IP with 2 ul Atx2 serum on Protein-A Dynabeads, 700 ug embryo extract (wild type and Dicer-2 null), performed as in Fig 3D (RNases); Western blot; interactions with Wispy and Tyf fully preserved in Dicer-2 null extracts (Fig 3E). On the technique in general: In western blotting, separated proteins are transferred to a membrane and probed.

Test [2] concerns the target Dicer-2 (Drosophila melanogaster (endogenous in embryo extracts)) (UniProt A1ZAW0). The test can be described thus: co-IP; small-scale IP, 5 ug affinity-purified anti-Dicer-2 antibody on Protein-A Dynabeads, 700 ug wild-type embryo extract, 25°C 1 h, washes in 1x NET (150 mM NaCl, 0.1% NP-40); with or without RNase I + RNase A; Western blot; IgG control (Fig 3B, 3D).

No constants are given. Whether binding was seen depends on the method and setting. Binding seen in cells or lysates may run through a third protein. Some binding calls cover weakened binding; strength is not graded here.

With “Dicer-2 (from UniProt A1ZAW0 1-1722) (enzyme)”, the binding entry in test [1] was “binds”.

B1: Ataxin-2 (protein, UniProt Q8SWR8 1-1084)
chain: MNNNSKRKTRPTGGGASGGISRYNSNDNSLRPTNNKAGAGGGNGGAAVRPSAQGVYNNTFFMHSATALVGSVVEVRLRSGNIYEGVFRTFSGNFDIALELPACIKSKNLPEEGKVPKHIIFPADTVVTIVAKDFDSQYATAGAFQTDGAISDKCNGARPDEKELEPWDSGANGDIDIELDSAANGWDPNEMFRKNENTFGVTSTFDDSLASYTVPLDKGDSLEFKEAEAKAEKLAAEIENNPTCRDRLDLENGDEEALFAAVERPSTEQDQRGDRGDRERNDRDREREERDRDRDRDRGNKPRGAGDFQLRETMSSDRYITKQTRSITGPQLSHVGMSSQGSGRDRDTRGDGSMMMQSGGGSGQGGSTQSTAALMLAGGLKGVGPAPSANASADSSSKYSGGSMVKRKTVPQGGKVMRNNVPTGGSNVSVSQGGNGNSVGQNKGGYQPSMGMPSQYSYQGNSQIMHGSSQYRNQSHMGGANKLNGDSNANTNKPLPQRQMRQYQGSQSNSSLNYGGEPQSLGKPVHGSHGGHPGQNSNSPPLQTAGPQQQQQQQQQQQQQQQQQQPPQQQQHQNIQPQGQNTQPARQVRTRDNQMQELRQFGQDFQLAPSNTSPPQQQQQQQQQQQQHQVQQQQQRALQQSASPPQQQQQQQQQQQHVVLHQVPQTHLHQAALSQPHYVPQQQPQQAPLPQQQHVPHHMQQKAQQQQLVETQHQHVQKQHQSQPQVQQPPPQLLQDPSQQPLPIYHTMPPPQTSPVVVTSPVLLEQPPPQPMPVVQQQQTQQLATPKPEVSPAPPSSNTTTPTGIASTPTAGVIASAGSEKTTPAAPTPTSNSATVPTGTAATAGGATGTTPVVKKHVLNPSAKPFTPRGPSTPNPSRPHTPQTPVPMTNIYTTTGGHVPPAANQPIYVMQPQHPFPPQTHPQAGQPPRLRRSNYPPMAASQMHVSASAATGQPLITAGPIPQFIQYGHAPHQQQFQSHTYAPMQMRVYPDQPQQLQFMTQTPQSTTPSPGQPHQQFHPPPQPSPAGGGPQPAFTPPTQAATYQLMCVHPQSLLANHYFPPPTPQHPQQNQQQYQIVMQQHQPQ
For B1, the binding entry in test [2] is reported as “binds”.

B2: Wispy (enzyme, UniProt Q9VYS4 1-1373)
chain: MFSTRISGDMKIFAADVAESSVTATCNTSVQQQQSQQLEFRTRMSAGSPSSKSGQCHLKFGKYNNKTANLLRQVNSCHSSNSSSNTSNNNNEAIKGQQQQPLHYCNSNNSHSWARKKYFGNGNSNNSLLQQQQQPSSFFQRQQQQHQMQMQQEKQATNNNDALMKNQNVVNAHVSDCKSSDSNNNSTSSSNNNSTISSNNNNTSSASNNNTGSSSSCSNRTKPAKWLNENSSSSSSSNNNNISCRNNNTSSIDTKRRNSSAGATAAYYRKSESESGSSEGAAESTETEATRTGGCNSNRTAESSSADGGTQATMGKSQDQEQDQTVKQRPRQQPLSFWKTNYPQTSATQLKDKETVAAVVSAAAVAAAAAAASASEQQQQQQSLSIEHRRNSGYQQHQQHNYYPYYYSQPKQLTIASFLQKEMLPDSTEKSSSNTGGSNMIRSSSNGNSNFSRHQYGHQSTGSGYQQQQQRYRNAQNVYQQYQHQQQHHAQQHTHPHFRRKHSDNGSGINKKMHYSPPGKSGDPADRSASGQQQHHHPHQQQKTIEILASSHFNAMHRRMQGGNNKNGYYQHSYNPMTGEVGSTPTRSEHQNIYNLTYIHVDTEATGEAASAAGSTPVVKPSLLSKPNISITPASSTTPTTVDRALLPAVRSVSAPASGSALPAPANHVRNMFPPPPLAMLGGHGLLSPVTTTTPTKMISCAQLDEAITAAAASGDKLSTSPSYNQAGHYIMPPQQQQQQQLSSHPIPTGTSSHPPPPPPPHMFFHFADGFCNPGQGHQAPPATMWPHSSSPCYPASYGSSCGSGTGAGTSPHNNDGNAGALRPASPALSSSSLGSESQWSGTSNRSRLGHNGHPSISPTPSALGSAQLSPHLAEMRVQHPLHQQHPPSHASHRPHGQMGGHAMSSYVPHRPPPPPHPSISSPNPTPVATGAGGPWYEMILPPDRYLAQARNIEVTVQPEKLICMCKYDNLSAEIWKRFRGAQQTHNKFKLKMRLWRYLYLWMHQPMFERYRICLVGSTITGFGTDSSDIDMCLLPEQGVHPHQHQYHQHHHFHNEKRTEALIILTLFNAVLKDTEVFQDFNLIEARVPILRFKDISNGIEVDLNFNNCVGIKNTYLLQLYAQMDWRTRPLVVIVKLWAQYHDINDAKRMTISSYSLVLMVLHYLQHACVPHVLPCLHSLYPEKFQLGQQDCLDLDLIEPIEPYQALNTQTLGEHLLGFFKYYSTFDFRNFAISIRTGGVLPVSTCRMAKSPKNDVYQWKELNIEEPFDLSNTARSVYDGPTFERVKAVFLISARRLDHTLDLATIFRPIHHVPEHFPQLQQHQQQFEQQLHHPISGQQRSAGGGGDGANPVPSTLNPDAASTFAETTAAHVA
B2: the binding result in test [1] was “binds”.
